No constants are given. Whether binding was seen depends on the method and setting. In cells and extracts the contact can be indirect. Some binding calls cover weakened binding; strength is not graded here.
Legend:
Assay in all cases: pull-down; GST–HsINCENP C-terminus (aa 820–918) bound to glutathione–Sepharose beads, incubated with lysates of Sf9 cells producing His–HsAurora B, 2 h at 4°C then 30 min at room temperature; lysis buffer 50 mM Tris-HCl pH 8.0, NaCl, 1% NP-40, 0.5% sodium deoxycholate; immunoblot; only the target purified
[1] = target: GST–HsINCENP C-terminus (aa 820–918) ST831AA (human) (UniProt Q9NQS7)
[2] = target: GST–HsINCENP C-terminus (aa 820–918) ST831EE (human) (UniProt Q9NQS7)
[3] = target: GST–HsINCENP C-terminus (aa 820–918), wild type (human) (UniProt Q9NQS7)

Protein sequences, listed by entry. Tags and fused reporters are not part of them. Lines headed by an entry give the natural chain unless they say otherwise; changes in a name come on top. Chains listed by the source or under a name are the forms on record and can include a tag or linker. Residues count along the entry.
GST–HsINCENP C-terminus (aa 820–918), wild type (Q9NQS7, residues 820-918): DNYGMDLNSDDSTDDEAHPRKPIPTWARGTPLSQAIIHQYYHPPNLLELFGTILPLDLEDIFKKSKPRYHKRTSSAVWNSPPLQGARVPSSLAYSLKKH
GST–HsINCENP C-terminus (aa 820–918) ST831AA (Q9NQS7, form named): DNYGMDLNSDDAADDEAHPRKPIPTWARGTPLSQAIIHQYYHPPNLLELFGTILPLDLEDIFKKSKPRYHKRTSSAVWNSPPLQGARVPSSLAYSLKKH
GST–HsINCENP C-terminus (aa 820–918) ST831EE (Q9NQS7, form named): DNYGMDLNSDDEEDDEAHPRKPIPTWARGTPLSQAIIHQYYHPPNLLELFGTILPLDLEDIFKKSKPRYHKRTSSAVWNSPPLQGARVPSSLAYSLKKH
UniProt Q96GD4: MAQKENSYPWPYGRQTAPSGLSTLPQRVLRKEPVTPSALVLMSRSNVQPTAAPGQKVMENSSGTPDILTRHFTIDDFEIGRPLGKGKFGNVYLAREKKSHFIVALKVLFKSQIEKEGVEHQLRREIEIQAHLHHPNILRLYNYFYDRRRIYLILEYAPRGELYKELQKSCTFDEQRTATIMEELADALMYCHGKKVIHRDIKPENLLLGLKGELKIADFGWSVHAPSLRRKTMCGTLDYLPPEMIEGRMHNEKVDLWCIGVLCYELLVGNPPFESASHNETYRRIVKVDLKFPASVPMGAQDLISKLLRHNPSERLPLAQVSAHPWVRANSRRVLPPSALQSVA

Measured: binding

His–HsAurora B (from UniProt Q96GD4 1-344) (enzyme)
binds: [1] | [2] | [3]
